Measurements reported in PubChem BioAssay AID686943 (Drosophila RNAi Screening Center, 2013)
The screen tested about 23,000 reagents; shown is a random part of those that have a named target and a result. 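Extra replicates exist only for a retested subset of genes; insulin dose and duration not given; both raised and lowered dpERK matter.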 A plus sign joins genes that one reagent is predicted to hit. Not given: the amount of reagent, the time to read-out.

Aim: 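Search across the genome for regulators of signalling from receptor tyrosine kinase to ERK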 (primary screen)
Cell system: Drosophila S2R+ haemocyte-like cells expressing YFP-tagged ERK (Rolled)
Reagent: long dsRNA against Drosophila genes
Challenge: insulin stimulation versus unstimulated cells; dose and duration not given
Read-out: 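Antibody staining for doubly phosphorylated ERK divided by ERK-YFP signal, as plate z-scores, in insulin-treated and untreated cells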
Reading the numbers: replicate 1, z-score of dpERK with insulin and replicate 2, z-score of dpERK with insulin: higher = more active ERK per ERK-YFP after insulin; replicate 1, z-score of dpERK under basal conditions: higher = more basal active ERK per ERK-YFP; replicate 1, z-score of ERK-YFP with insulin: higher = more YFP-tagged ERK signal

Gene | dsRNA | replicate 1, z-score of dpERK with insulin | replicate 2, z-score of dpERK with insulin | replicate 1, z-score of dpERK under basal conditions | replicate 1, z-score of ERK-YFP with insulin
Cyp4ae1 | DRSC18455 | 0.05 | 0.37 | -0.62 | 0.78
BomS5 | DRSC22306 | 0.32 | 0.88 | 0 | 0.57
Fip1 | DRSC12147 | 0.84 | 0.95 | -0.9 | 0.7
Npc2f | DRSC15980 | 0.79 | -0.09 | -1.35 | -0.15
Csp | DRSC11860 | -0.07 | -0.28 | 0 | -0.26
Sfp53D | DRSC05625 | 1.05 | 1.14 | -0.33 | 0.55
lncRNA:CR34047 | DRSC07857 | 1.01 | -0.23 | 0.02 | -0.28
lncRNA:CR34047 | DRSC21689 | 0.33 | 0.25 | 0.84 | 0.65
ND-13A | DRSC03110 | 0.25 | 0.32 | 0.32 | 0.64
sphinx1 | DRSC10993 | 0.48 | 0.79 | 0.38 | 0.13
MED22 | DRSC18175 | 1.92 | -0.73 | -1.93 | -2.18
CG12541 | DRSC17483 | 1.33 | 0.68 | 0.4 | -0.21
CG12541 | DRSC17839 | 0.17 | 0.04 | 0.3 | -0.43
Mal-B2 | DRSC02417 | 1.67 | 0.59 | -0.03 | 0.56
Pfk | DRSC07506 | 0.78 | 0.39 | 0.35 | -0.6
CG7544 | DRSC07023 | 0.16 | 1.02 | -0.48 | 0.35
CG8159 | DRSC16392 | 0.14 | -0.06 | 0.89 | -0.69
CG15127 | DRSC05802 | -0.09 | 0.15 | 0.38 | 0.34
CG15127 | DRSC06549 | 0.33 | 0.61 | -0.76 | 0.07
CG4045 | DRSC18518 | 0.92 | -0.2 | -0.12 | 0.34
CG31698 | DRSC22226 | -0.47 | -0.5 | 0.29 | 0.12
Npc1a | DRSC03378 | 0.15 | -0.46 | -0.33 | -0.29
CG14131 | DRSC10135 | -0.68 | 0.57 | -0.21 | -0.63
Hsdl2 | DRSC15839 | 0.7 | 0.65 | -0.03 | -0.19
Cyp4p1 | DRSC07372 | 0.98 | 0.37 | -0.47 | 0.05
CG42271 | DRSC19809 | -0.18 | -0.43 | 0.16 | 0.09
CG42271 | DRSC22894 | 0.25 | 0.7 | -0.11 | -0.06
CG34452 | DRSC09387 | 0.07 | 0.44 | -0.54 | 0.16
CG14561 | DRSC11722 | 1.02 | -0.06 | -0.36 | 0.09
CG31778 | DRSC00283 | -0.38 | 0 | -0.32 | -0.17
poe | DRSC03593 | -1.68 | -1.17 | -1.17 | 1.48
Tmlh | DRSC15563 | 0.97 | -0.14 | 0.07 | -0.29
Su(var)2-HP2 | DRSC06204 | 0.14 | -0.75 | -0.23 | -0.39
Cpr47Ed | DRSC07331 | -0.42 | 0.33 | -0.5 | -0.08
Noa36 | DRSC16761 | -0.13 | 0.07 | -0.27 | 0.64
CG9389 | DRSC11857 | 0.3 | -0.12 | 1.15 | -0.32
CG13794 | DRSC02298 | -0.17 | -0.91 | -2.81 | 1.23
Drip | DRSC07405 | 0.24 | -0.07 | 0.18 | 0
CG42820 | DRSC02265 | -0.27 | 1.6 | -0.13 | 1.35
Pym | DRSC22492 | 0.39 | -3.25 | 0.31 | -1.56
Tsp66A + CG42661 + CG42660 | DRSC10233 | -0.32 | -0.15 | 0.33 | 0.42
CG11999 | DRSC12185 | 0.05 | -0.33 | 1.6 | 0.07
CG4461 | DRSC10423 | 0.4 | 0.37 | 0.43 | 0.25

3 successive entries already listed, for reference:
Gene | dsRNA | replicate 1, z-score of dpERK with insulin | replicate 2, z-score of dpERK with insulin | replicate 1, z-score of dpERK under basal conditions | replicate 1, z-score of ERK-YFP with insulin
CG34452 | DRSC09387 | 0.07 | 0.44 | -0.54 | 0.16
CG14561 | DRSC11722 | 1.02 | -0.06 | -0.36 | 0.09
CG31778 | DRSC00283 | -0.38 | 0 | -0.32 | -0.17

The list goes on:
Gene | dsRNA | replicate 1, z-score of dpERK with insulin | replicate 2, z-score of dpERK with insulin | replicate 1, z-score of dpERK under basal conditions | replicate 1, z-score of ERK-YFP with insulin
CG9098 | DRSC03136 | 0.72 | -0.06 | -0.74 | 0.29
CG9098 | DRSC22501 | 0.26 | 0.68 | 0.53 | -0.41
CG18537 | DRSC06764 | 0.11 | 0.33 | 0.09 | 1.01
CHKov1 | DRSC01566 | 0.58 | 1.06 | 0.5 | 0.49
CHKov1 | DRSC01696 | -0.43 | 0.63 | 0.67 | 0.52
CHKov1 | DRSC14258 | 0.1 | -0.38 | 1.44 | -0.11
CHKov1 | DRSC20937 | 0.78 | -0.49 | 0.1 | 0.32
CG42827 | DRSC16116 | 0.86 | -1.41 | -0.26 | -0.57
ATP8B | DRSC12883 | -1.07 | -0.47 | 0.23 | 0.45
ATP8B | DRSC14961 | -0.5 | 0.29 | 0.06 | -0.07
Jon66Ci | DRSC10772 | -0.56 | -0.35 | 1.26 | 0.14
Rgk1 | DRSC05785 | -0.12 | 0.26 | 0.51 | 0.15
Rgk1 | DRSC05786 | 1.39 | 1.97 | 1.12 | -0.79
Rgk1 | DRSC05789 | 1.18 | 0.54 | 1.5 | -0.17
Rgk1 | DRSC07343 | 0.67 | 0.18 | -0.08 | 0.78
Rgk1 | DRSC07344 | -5.29 | -3.49 | -4.23 | -1
Eip63E | DRSC08658 | 1.15 | 0.14 | 0.03 | 0.44
PGAP2 | DRSC00632 | 0.23 | -0.48 | -0.27 | 0.12
Ir67a | DRSC09897 | 0.29 | 0.51 | 0.6 | 0.4
e | DRSC16936 | -0.43 | -0.22 | 0.02 | -0.51
CG13074 | DRSC09957 | -0.66 | 0.07 | 0.21 | 0.71
Cyp9f2 | DRSC16635 | 0.87 | 0.73 | -1 | 1.52
CG4914 | DRSC10458 | -0.35 | -0.1 | -0.22 | 0.63
Cln3 | DRSC10520 | -0.36 | 0.4 | -0.89 | 0.63
Dlip1 | DRSC18460 | 1.09 | 0.51 | 0.29 | 0.21
CG7029 | DRSC16177 | -0.16 | -0.16 | 0.05 | -0.39
wun2 | DRSC07566 | 0.31 | 0.35 | 1.66 | 0.41
Vps28 | DRSC06168 | -0.25 | -1.12 | 1.33 | 0.26
CG2065 | DRSC06813 | 0.47 | -0.23 | 0.06 | 1.05
CG2065 | DRSC21328 | 0.72 | 1.14 | 0.1 | 1.4
